{"source": "patent US4504471A", "about": "“Animal growth promotant and method of use for animal growth” (Fujisawa Pharmaceutical Co., Ltd., priority 1982, dated 1985)", "key": {"[1]": {"tested_on": "male broiler chickens (Chunky)", "test": "Test 1: growth and efficiency of feed utilization of broiler chickens fed Compound 1", "assay_type": "in vivo, chicken", "settings": "1 ppm in feed; for Average body weight gain: 7-days-old male broiler chickens"}, "piglets (LWD)": {"tested_on": "piglets (LWD)", "test": "Test 2: growth and efficiency of feed utilization of piglets fed Compound 1", "assay_type": "in vivo, pig", "settings": "8 weeks"}}, "note": "Part of at least one peptide drawing is inferred or uncertain, most often the ends."}
{"smiles": "CCCCCCC(=O)N[C@H](CCC(=O)N[C@@H](CCC[C@@H](N)C(=O)O)C(=O)N[C@H](C)C(=O)O)C(=O)O", "note": "[Compound 1]", "values": [{"measurement": "Average body weight gain, index to the control group", "setting": "[1]; week 0-1", "value": 116, "unit": "%"}, {"measurement": "Efficiency of feed utilization", "setting": "[1]; week 0-1", "value": 1.87}, {"measurement": "Efficiency of feed utilization, index to the control group", "setting": "[1]; week 0-1", "value": 78, "unit": "%"}, {"measurement": "Average body weight gain", "setting": "[1]; week 0-1", "value": 155, "unit": "g"}, {"measurement": "Average body weight gain, index to the control group", "setting": "[1]; week 0-2", "value": 111, "unit": "%"}, {"measurement": "Efficiency of feed utilization", "setting": "[1]; week 0-2", "value": 1.72}, {"measurement": "Efficiency of feed utilization, index to the control group", "setting": "[1]; week 0-2", "value": 90, "unit": "%"}, {"measurement": "Average body weight gain", "setting": "[1]; week 0-2", "value": 453, "unit": "g"}, {"measurement": "Average body weight gain, index to the control group", "setting": "[1]; week 0-3", "value": 107, "unit": "%"}, {"measurement": "Efficiency of feed utilization", "setting": "[1]; week 0-3", "value": 1.73}, {"measurement": "Efficiency of feed utilization, index to the control group", "setting": "[1]; week 0-3", "value": 97, "unit": "%"}, {"measurement": "Average body weight gain", "setting": "[1]; week 0-3", "value": 783, "unit": "g"}, {"measurement": "Average body weight gain, index to the control group", "setting": "[1]; week 0-4", "value": 102, "unit": "%"}, {"measurement": "Efficiency of feed utilization", "setting": "[1]; week 0-4", "value": 1.87}, {"measurement": "Efficiency of feed utilization, index to the control group", "setting": "[1]; week 0-4", "value": 98, "unit": "%"}, {"measurement": "Average body weight gain", "setting": "[1]; week 0-4", "value": 1143, "unit": "g"}, {"measurement": "Average body weight gain, index to the control group", "setting": "[1]; week 0-5", "value": 102, "unit": "%"}, {"measurement": "Efficiency of feed utilization", "setting": "[1]; week 0-5", "value": 2.02}, {"measurement": "Efficiency of feed utilization, index to the control group", "setting": "[1]; week 0-5", "value": 96, "unit": "%"}, {"measurement": "Average body weight gain", "setting": "[1]; week 0-5", "value": 1529, "unit": "g"}, {"measurement": "Average body weight gain, index to the control group", "setting": "[1]; week 0-6", "value": 105, "unit": "%"}, {"measurement": "Efficiency of feed utilization", "setting": "[1]; week 0-6", "value": 2.13}, {"measurement": "Efficiency of feed utilization, index to the control group", "setting": "[1]; week 0-6", "value": 97, "unit": "%"}, {"measurement": "Average body weight gain", "setting": "[1]; week 0-6", "value": 1977, "unit": "g"}, {"measurement": "Average body weight gain, index to the control group", "setting": "[1]; week 0-7", "value": 105, "unit": "%"}, {"measurement": "Efficiency of feed utilization", "setting": "[1]; week 0-7", "value": 2.31}, {"measurement": "Efficiency of feed utilization, index to the control group", "setting": "[1]; week 0-7", "value": 97, "unit": "%"}, {"measurement": "Average body weight gain", "setting": "[1]; week 0-7", "value": 2359, "unit": "g"}, {"measurement": "Average body weight gain, index to the control group", "setting": "[1]; week 0-8", "value": 107, "unit": "%"}, {"measurement": "Efficiency of feed utilization", "setting": "[1]; week 0-8", "value": 2.42}, {"measurement": "Efficiency of feed utilization, index to the control group", "setting": "[1]; week 0-8", "value": 96, "unit": "%"}, {"measurement": "Average body weight gain", "setting": "[1]; week 0-8", "value": 2784, "unit": "g"}, {"measurement": "Average Final Body Weight Gain", "setting": "piglets (LWD); 1 ppm in feed", "value": 40.3, "unit": "kg"}, {"measurement": "Average Final Body Weight Gain, index to the control group", "setting": "piglets (LWD); 1 ppm in feed", "value": 116, "unit": "%"}, {"measurement": "Efficiency of feed utilization", "setting": "piglets (LWD); 1 ppm in feed", "value": 2.38}, {"measurement": "Efficiency of feed utilization, index to the control group", "setting": "piglets (LWD); 1 ppm in feed", "value": 98, "unit": "%"}, {"measurement": "Average Final Body Weight Gain", "setting": "piglets (LWD); 10 ppm in feed", "value": 34.7, "unit": "kg"}, {"measurement": "Average Final Body Weight Gain, index to the control group", "setting": "piglets (LWD); 10 ppm in feed", "value": 100, "unit": "%"}, {"measurement": "Efficiency of feed utilization", "setting": "piglets (LWD); 10 ppm in feed", "value": 2.35}, {"measurement": "Efficiency of feed utilization, index to the control group", "setting": "piglets (LWD); 10 ppm in feed", "value": 97, "unit": "%"}, {"measurement": "Average Final Body Weight Gain", "setting": "piglets (LWD); 100 ppm in feed", "value": 37.8, "unit": "kg"}, {"measurement": "Average Final Body Weight Gain, index to the control group", "setting": "piglets (LWD); 100 ppm in feed", "value": 109, "unit": "%"}, {"measurement": "Efficiency of feed utilization", "setting": "piglets (LWD); 100 ppm in feed", "value": 2.27}, {"measurement": "Efficiency of feed utilization, index to the control group", "setting": "piglets (LWD); 100 ppm in feed", "value": 93, "unit": "%"}]}
